This note sets out measurements from PMC4604688.

Results are given in words; binding and its absence hold for the method and conditions named. Binding seen in cells or lysates may run through a third protein.

This test addresses p53 (endogenous, p53 wt/wt HCT116) (human (endogenous in HCT116)) (UniProt P04637). As to the kind of experiment: co-IP; p53 precipitated from PHD1-silenced (and control) HCT116, untreated or treated with 300 μM 5-FU for 8 h; blot for XPD.

B1: XPD (component of TFIIH) (enzyme, UniProt P18074 1-760)
chain: MKLNVDGLLVYFPYDYIYPEQFSYMRELKRTLDAKGHGVLEMPSGTGKTVSLLALIMAYQRAYPLEVTKLIYCSRTVPEIEKVIEELRKLLNFYEKQEGEKLPFLGLALSSRKNLCIHPEVTPLRFGKDVDGKCHSLTASYVRAQYQHDTSLPHCRFYEEFDAHGREVPLPAGIYNLDDLKALGRRQGWCPYFLARYSILHANVVVYSYHYLLDPKIADLVSKELARKAVVVFDEAHNIDNVCIDSMSVNLTRRTLDRCQGNLETLQKTVLRIKETDEQRLRDEYRRLVEGLREASAARETDAHLANPVLPDEVLQEAVPGSIRTAEHFLGFLRRLLEYVKWRLRVQHVVQESPPAFLSGLAQRVCIQRKPLRFCAERLRSLLHTLEITDLADFSPLTLLANFATLVSTYAKGFTIIIEPFDDRTPTIANPILHFSCMDASLAIKPVFERFQSVIITSGTLSPLDIYPKILDFHPVTMATFTMTLARVCLCPMIIGRGNDQVAISSKFETREDIAVIRNYGNLLLEMSAVVPDGIVAFFTSYQYMESTVASWYEQGILENIQRNKLLFIETQDGAETSVALEKYQEACENGRGAILLSVARGKVSEGIDFVHHYGRAVIMFGVPYVYTQSRILKARLEYLRDQFQIRENDFLTFDAMRHAAQCVGRAIRGKTDYGLMVFADKRFARGDKRGKLPRWIQEHLTDANLNLTVDEGVQVAKYFLRQMAQPFHREDQLGLSLLSLEQLESEETLKRIEQIAQQL
With B1, the binding entry is recorded as “no binding”.
